According to the supplement of paper PMC9135407:
Where “and” joins values, the source holds several entries; their conditions need not be identical. Equal entries are not always repeated. Structures can show the parent of a compound that is named as a salt. ± gives the standard deviation of the averaged measurements. This is one part of the list. Plates or batches differ in their baseline, so values are only roughly comparable.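 Primary human stellate myofibroblasts activated in culture; inactivation shown by regained lipid droplets. Readout: fraction of Hoechst-counted cells exceeding a per-plate Bodipy threshold, duplicate wells, each plate with DMSO negative and nortriptyline positive controls. Hits: control-normalized score beyond the plate's top-tenth-percentile nortriptyline wells, or among its three best wells. Final well concentrations unstated.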

System: primary human hepatic stellate cells (donor 1)
Test: percent Bodipy-positive cells; higher = more lipid droplet accumulation
Conditions: 48 h
[1] = library stock concentration: 10 mM
[2] = library stock concentration: 3.33 mM
[3] = library stock concentration: 80 uM
[4] = library stock concentration: 400 uM
[5] = library stock concentration: 2 mM
[6] = library stock concentration: 1 mM

O=C(NCC(O)CO)c1c(I)c(C(=O)NCC(O)CO)c(I)c(N(CCO)C(=O)CO)c1I (stereo unspecified) [Ioversol]
percent Bodipy-positive cells: 9.63 ± 1.9%

CO/N=C(\C(=O)N[C@@H]1C(=O)N2C(C(=O)O)=C(COC(N)=O)CS[C@H]12)c1ccco1 [Cefuroxime sodium salt]
percent Bodipy-positive cells: 9.33 ± 4.2%

CO/N=C(\C(=O)N[C@@H]1C(=O)N2C(C(=O)O)=C(COC(N)=O)CS[C@H]12)c1ccco1 [Cefuroxime]
percent Bodipy-positive cells [1]: 32.5 ± 1.4%

CO/N=C(\C(=O)N[C@@H]1C(=O)N2C(C(=O)O)=C(COC(N)=O)CS[C@H]12)c1ccco1 [Cefuroxime sodium]
percent Bodipy-positive cells (library stock concentration: 4.5 mM): 7.66 ± 0.58%
percent Bodipy-positive cells [1]: 23.1 ± 3.2%

CN1CCN(CCOc2cc(OC3CCOCC3)c3c(Nc4c(Cl)ccc5c4OCO5)ncnc3c2)CC1 [Saracatinib (AZD0530)]
percent Bodipy-positive cells [2]: 63.819 ± 0.037%
percent Bodipy-positive cells [1]: 77 ± 2.4%

CN1CCN(CCOc2cc(OC3CCOCC3)c3c(Nc4c(Cl)ccc5c4OCO5)ncnc3c2)CC1
percent Bodipy-positive cells [3]: 24 ± 2.9%
percent Bodipy-positive cells [4]: 38.7 ± 16%
percent Bodipy-positive cells [5]: 56.1 ± 15%
percent Bodipy-positive cells [1]: 81.7 ± 13%

C[C@@H](N)c1ccc(C(=O)Nc2ccnc3[nH]ccc23)cc1
percent Bodipy-positive cells [3]: 11.3 ± 3.5%
percent Bodipy-positive cells [4]: 14.7 ± 2%
percent Bodipy-positive cells [5]: 36.3 ± 16%

Nc1ccc(S(=O)(=O)Nc2ccnn2-c2ccccc2)cc1 [Sulfaphenazole]
percent Bodipy-positive cells: 33.5 ± 7%
percent Bodipy-positive cells [1]: 22.8% and 17.3%

COc1cc(/C=C(\C#N)C(N)=O)cc(CSc2nc3ccccc3s2)c1O
percent Bodipy-positive cells [1]: 6.52 ± 1.1%

CCOCC(O)COc1ccc(NC(=O)CC[S+](C)C)cc1 (stereo unspecified) [Suplatast Tosylate]
percent Bodipy-positive cells [2]: 8.4 ± 2.4%
percent Bodipy-positive cells [1]: 16.6 ± 11%

CCOCC(O)COc1ccc(NC(=O)CC[S+](C)C)cc1 (stereo unspecified) [Suplatast tosylate]
percent Bodipy-positive cells [1]: 8.17 ± 1.7%

O=C(NCCCNc1nc(Nc2cccc(CN3CCOCC3)c2)ncc1C1CC1)C1CCC1
percent Bodipy-positive cells [3]: 6.63 ± 1.7%
percent Bodipy-positive cells [4]: 17.6 ± 6.5%
percent Bodipy-positive cells [5]: 16 ± 1.8%
percent Bodipy-positive cells [1]: 45 ± 1%

CC(=O)Nc1ncc([N+](=O)[O-])s1 [Nithiamide]
percent Bodipy-positive cells [2]: 10.6 ± 0.73%
percent Bodipy-positive cells [1]: 24.9 ± 10%

CC(=O)Nc1ncc([N+](=O)[O-])s1
percent Bodipy-positive cells [1]: 21.3 ± 3.3%

O=C(NOCC1CC1)c1cc(Br)c(F)c(F)c1Nc1ccc(I)cc1Cl
percent Bodipy-positive cells [1]: 15.7 ± 5.8%

CCCCCCCCCCCCCCCC(=O)O[C@@H]1[C@@H](O)[C@@H](O)[C@@H]([C@H](NC(=O)[C@@H]2C[C@@H](CCC)CN2C)[C@H](C)Cl)O[C@@H]1SC [Clindamycin palmitate HCl]
percent Bodipy-positive cells [2]: 8.23 ± 2.6%
percent Bodipy-positive cells [1]: 15.8 ± 6.5%

CCCCCCCCCCCCCCCC(=O)O[C@@H]1[C@@H](O)[C@@H](O)[C@@H]([C@H](NC(=O)[C@@H]2C[C@@H](CCC)CN2C)[C@H](C)Cl)O[C@@H]1SC [Clindamycin palmitate hydrochloride]
percent Bodipy-positive cells (library stock concentration: 2.9 mM): 13.3 ± 9%

CCCCCCCCCCCCCCCC(=O)O[C@@H]1[C@@H](O)[C@@H](O)[C@@H]([C@H](NC(=O)[C@@H]2C[C@@H](CCC)CN2C)[C@H](C)Cl)O[C@@H]1SC [Clindamycin palmitate]
percent Bodipy-positive cells (library stock concentration: 4.7 mM): 12.3 ± 1.6%

Cc1cc(CC(=O)O)n(C)c1C(=O)c1ccc(Cl)cc1 [Zomepirac sodium salt]
percent Bodipy-positive cells: 8.483 ± 0.019%

Cc1cc(CC(=O)O)n(C)c1C(=O)c1ccc(Cl)cc1 [Zomepirac sodium]
percent Bodipy-positive cells (library stock concentration: 6.9 mM): 13.8 ± 1.9%
percent Bodipy-positive cells [1]: 14.7 ± 2.1%

COc1cc2nccc(Oc3ccc(NC(=O)Nc4ccc(F)cc4F)c(F)c3)c2cc1OC
percent Bodipy-positive cells [1]: 92.32 ± 0.75%

COc1ccc2cc(C(C)C(=O)O)ccc2c1 (stereo not drawn) [Naproxen(+)]
percent Bodipy-positive cells (library stock concentration: 8.7 mM): 1.38 ± 0.81%
percent Bodipy-positive cells [1]: 9.6655 ± 0.0064%

Nc1ncnc2c1c(I)cn2[C@@H]1O[C@H](CO)[C@@H](O)[C@H]1O [5-Iodotubercidin]
percent Bodipy-positive cells [2]: 39.1 ± 3.1%

Nc1ncnc2c1nc(Sc1ccc(Cl)cc1)n2C1OC2COP(=O)(O)O[C@@H]2[C@@H]1O (stereo partly specified) [8-(4-Chlorophenylthio)-cAMP sodium]
percent Bodipy-positive cells [1]: 42.9 ± 6.8%

CC(C)=CCC/C(C)=C/CC/C(C)=C/CSCC(=O)O [Farnesylthioacetic acid]
percent Bodipy-positive cells [6]: 11.5 ± 9.3%

CC(C)=CCC/C(C)=C/CC/C(C)=C/CSCC(=O)O [S-Farnesyl Thioacetic Acid]
percent Bodipy-positive cells [6]: 11.4 ± 1.5%

CC(C)c1ccc(C(=O)c2cccs2)c(SCCCCCCCCN(C)C)n1.O=C(O)C(=O)O
percent Bodipy-positive cells [1]: 95.8 ± 3.7%

c1cncc(CN2CCC(n3ncc4c(N5CCOCC5)nc(-c5ccc6[nH]ccc6c5)nc43)CC2)c1
percent Bodipy-positive cells [2]: 95.8 ± 1.6%
percent Bodipy-positive cells [1]: 99.215 ± 0.022%

CC#CCOC(=O)C1=CCCN(C)C1 [Arecaidine but-2-ynyl ester tosylate]
percent Bodipy-positive cells [1]: 7.81 ± 1.1%

CC(C)C[C@@H]1NC(=O)[C@H](CCCN)NC(=O)[C@H](C(C)C)NC(=O)[C@H](Cc2ccc(O)cc2)N[C@@H](CCC(=O)O)C(=O)N[C@@H](CC(N)=O)C(=O)[C@@H](Cc2ccccc2)NC(=O)[C@H](Cc2ccccc2)NC(=O)[C@@H]2CCCN2C(=O)[C@@H](Cc2ccccc2)NC1=O [Tyrothricin]
percent Bodipy-positive cells (library stock concentration: 1.6 mM): 39.7 ± 17%
percent Bodipy-positive cells [1]: 20.9 ± 4.8%

CCN=C1N[C@@H]2[C@@H](O)[C@H](O)[C@@H](CO)O[C@@H]2S1 [Thiamet G]
percent Bodipy-positive cells [2]: 16.4 ± 1.4%
percent Bodipy-positive cells [1]: 30.2 ± 8.6%

Nc1ccc2cc3ccc(N)cc3nc2c1
percent Bodipy-positive cells [1]: 0.392 ± 0.55%

CC1(C)O[C@@H]2C[C@H]3[C@@H]4CCC5=CC(=O)C=C[C@]5(C)[C@@]4(F)[C@@H](O)C[C@]3(C)[C@]2(C(=O)CO)O1 [Triamcinolone Acetonide]
percent Bodipy-positive cells [2]: 17.8 ± 17%
percent Bodipy-positive cells [1]: 10.6 ± 3.4%

CC1(C)O[C@@H]2C[C@H]3[C@@H]4CCC5=CC(=O)C=C[C@]5(C)[C@@]4(F)[C@@H](O)C[C@]3(C)[C@]2(C(=O)CO)O1
percent Bodipy-positive cells [1]: 21 ± 9.1%

CC1(C)O[C@@H]2C[C@H]3[C@@H]4CCC5=CC(=O)C=C[C@]5(C)[C@@]4(F)[C@@H](O)C[C@]3(C)[C@]2(C(=O)CO)O1 [Triamcinolone acetonide]
percent Bodipy-positive cells [1]: 17.6 ± 4%

NC1=NCCN1CC(=O)O [Cyclocreatine]
percent Bodipy-positive cells [1]: 25.1 ± 3.4%

CC(C)(C)C(=O)Nc1ccccc1 [N-Pivaloylaniline]
percent Bodipy-positive cells [6]: 24.8 ± 10%

N=C(N)SCCc1c[nH]cn1 [Imetit dihydrobromide]
percent Bodipy-positive cells [1]: 30.6% and 8.42%

CCCCC[C@H](O)/C=C/[C@H]1[C@H](O)CC(=O)[C@@H]1C/C=C\CCCC(=O)OC [Prostaglandin E2 methyl ester]
percent Bodipy-positive cells [6]: 17 ± 3.3%

Cc1cnc(NC(=O)C2=C(O)c3ccccc3S(=O)(=O)N2C)s1 [Meloxicam sodium]
percent Bodipy-positive cells (library stock concentration: 5.4 mM): 59.5 ± 10%
percent Bodipy-positive cells [1]: 34.1 ± 1.2%

Cc1cnc(NC(=O)C2=C(O)c3ccccc3S(=O)(=O)N2C)s1 [Meloxicam]
percent Bodipy-positive cells: 27.6 ± 3.6%
percent Bodipy-positive cells [2]: 6.7 ± 1.6%
percent Bodipy-positive cells (library stock concentration: 5.7 mM): 7.5 ± 3.7%
percent Bodipy-positive cells [1]: 15.3% and 28.7% and 31.8%

CC(C)NCC(O)COc1ccc(CC(N)=O)cc1 (racemic) [(RS)-Atenolol]
percent Bodipy-positive cells [1]: 4.54 ± 1%
